Legend:
Format in all cases: cell-based
HB-214 = experiment: 60-agent chemical screen, cell viability (Cell-Titer Glo), HB-214; details: Homo sapiens; 60-agent screen, 72 hours; a value of 10,000 indicates that the drug did not inhibit viability; read-out: absolute IC50, HB-214;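 note: viability read as luminescence once Cell-Titer Glo 2.0 reagent was added to drug-treated cells in 384-well plates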
Huh-6 = experiment: 60-agent chemical screen, cell viability (Cell-Titer Glo), Huh-6; details: Homo sapiens, 60-agent screen, 72 hours, a value of 10,000 indicates that the drug did not inhibit viability, read-out: absolute IC50, Huh-6
HepG2 = experiment: 60-agent chemical screen, cell viability (Cell-Titer Glo), HepG2; details: Homo sapiens, 60-agent screen, 72 hours, a value of 10,000 indicates that the drug did not inhibit viability, read-out: absolute IC50, HepG2;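 note: luminescence read-out in 384-well plates, with cells plated directly onto drug dilutions of known concentration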

## CCc1cnn2c(NCc3ccc[n+]([O-])c3)cc(N3CCCC[C@H]3CCO)nc12 [dinaciclib]
HB-214
  IC50: > 10000 nM
Huh-6
  IC50: 10 nM
HepG2
  IC50: 8 nM

— paper PMC6849653, “Volasertib preclinical activity in high-risk hepatoblastoma” (Oncotarget, 2019)
